{
  "source": "the supplement of paper PMC8728848",
  "binders": {"B1": {"name": "PX14343G-pdi-535-24-535 (Parabacteroides distasonis) (protein)", "chain": "LDTVPKDQLAPSTTWQTEADAKGFIVGCYKDLLDGNTLLYLDCGSDIGYNNFPWEGFRPWGDGSLSSSNPGQILYDYKSIRKANTFLENVDKVTFSSDAVKANYVAQAKAIRAYKYFLMNWWYGGVPIISSYSSADEAKVERNTEQEVRDYIAKDLDEALAGIAEAPEARGYIAKGAVLAIKMREALYYGDWQKAKDAAKAIIDLKQYELDPDYTNLFKVSGVDSKEIILADQNIETLDGLGTIGQMYNNVDQGWSSIVPTQNLVDMYEMSDGLTKEESKTYDAKHPFANRDPRMAMTILYPGRDWRGDVLNTLDEKLQDGTVNKNFPTYTDNASKSALTWAKYLDPMDQYGDVWSSGACPIVFRYAEVLLTYAEAANELSGPSDEIYGYLNQIRQRVGMGEVDKAKYGTKDKLRELIRRERTVELAGEGLRRADIVRWQEDGKMLAEKVMNGDLLRVTGTINYGESEPTKRAEITGTAVIETRQFSSRNRYLPIPQTSMDKNPNLKQNPGY"}},
  "experiment_in_all_cases": "glycan array binding signal (z-score within array); higher = stronger binding",
  "details_in_all_cases": "glycan notation: IUPAC condensed, linker removed",
  "key": {"Fuc(a1-3)GlcNAc": {"target": "Fuc(a1-3)GlcNAc", "method_in_brief": "(§1)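 The binding signal is a Z-score computed within each array. Data were drawn from 3228 arrays in the Consortium for Functional Glycomics database, restricted to those with a known protein sequence. Scores were averaged over arrays of the same protein sequence at different concentrations or buffers, and over linkers, and negative values can be taken as non-binding.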"}, "[1]": {"target": "Fuc(a1-3)[Gal(b1-4)]Glc6S", "method_in_brief": "as §1"}, "[2]": {"target": "Fuc(a1-3)[Gal(b1-4)]GlcNAc", "method_in_brief": "as §1"}, "[3]": {"target": "Fuc(a1-3)[Gal(b1-4)]GlcNAc(b1-2)Man", "method_in_brief": "as §1"}, "[4]": {"target": "Fuc(a1-3)[Gal(b1-4)]GlcNAc(b1-2)Man(a1-3)[Fuc(a1-3)[Gal(b1-4)]GlcNAc(b1-2)Man(a1-6)]Man(b1-4)GlcNAc(b1-4)GlcNAc", "method_in_brief": "as §1"}, "[5]": {"target": "Fuc(a1-3)[Gal(b1-4)]GlcNAc(b1-2)Man(a1-3)[Fuc(a1-3)[Gal(b1-4)]GlcNAc(b1-2)Man(a1-6)]Man(b1-4)GlcNAc(b1-4)[Fuc(a1-6)]GlcNAc", "method_in_brief": "as §1"}, "[6]": {"target": "Fuc(a1-3)[Gal(b1-4)]GlcNAc(b1-3)Gal(b1-3)[Fuc(a1-4)]GlcNAc", "method_in_brief": "as §1"}, "[7]": {"target": "Fuc(a1-3)[Gal(b1-4)]GlcNAc(b1-3)Gal(b1-4)[Fuc(a1-3)]GlcNAc", "method_in_brief": "as §1"}, "[8]": {"target": "Fuc(a1-3)[Gal(b1-4)]GlcNAc(b1-3)Gal(b1-4)[Fuc(a1-3)]GlcNAc(b1-3)Gal(b1-4)[Fuc(a1-3)]GlcNAc", "method_in_brief": "as §1"}, "[9]": {"target": "Fuc(a1-3)[Gal(b1-4)]GlcNAc(b1-3)GalNAc", "method_in_brief": "as §1"}, "[10]": {"target": "Fuc(a1-3)[Gal(b1-4)]GlcNAc(b1-6)GalNAc", "method_in_brief": "as §1"}, "[11]": {"target": "Fuc(a1-3)[Gal(b1-4)]GlcNAc(b1-6)[Gal(b1-3)GlcNAc(b1-3)]Gal(b1-4)Glc", "method_in_brief": "as §1"}, "[12]": {"target": "Fuc(a1-3)[Gal(b1-4)]GlcNAc6S", "method_in_brief": "as §1"}, "[13]": {"target": "Fuc(a1-3)[Gal3S(b1-4)]Glc", "method_in_brief": "as §1"}, "[14]": {"target": "Fuc(a1-3)[Gal3S(b1-4)]GlcNAc", "method_in_brief": "as §1"}, "[15]": {"target": "Fuc(a1-3)[Gal3S(b1-4)]GlcNAc6S", "method_in_brief": "as §1"}, "[16]": {"target": "Fuc(a1-3)[GalNAc(b1-4)]GlcNAc", "method_in_brief": "as §1"}, "[17]": {"target": "Fuc(a1-3)[GalNAc(b1-4)]GlcNAc6S", "method_in_brief": "as §1"}, "Fuc(a1-4)GlcNAc": {"target": "Fuc(a1-4)GlcNAc", "method_in_brief": "as §1"}, "Fuc(b1-3)GlcNAc": {"target": "Fuc(b1-3)GlcNAc", "method_in_brief": "as §1"}, "Gal(a1-2)Gal": {"target": "Gal(a1-2)Gal", "method_in_brief": "as §1"}, "Gal(a1-3)Gal": {"target": "Gal(a1-3)Gal", "method_in_brief": "as §1"}, "Gal(a1-3)Gal(b1-3)GlcNAc": {"target": "Gal(a1-3)Gal(b1-3)GlcNAc", "method_in_brief": "as §1"}, "[18]": {"target": "Gal(a1-3)Gal(b1-3)GlcNAc(b1-2)Man", "method_in_brief": "as §1"}, "[19]": {"target": "Gal(a1-3)Gal(b1-3)GlcNAc(b1-2)Man(a1-3)[Gal(a1-3)Gal(b1-3)GlcNAc(b1-2)Man(a1-6)]Man(b1-4)GlcNAc(b1-4)GlcNAc", "method_in_brief": "as §1"}, "[20]": {"target": "Gal(a1-3)Gal(b1-3)GlcNAc(b1-3)GalNAc", "method_in_brief": "as §1"}, "[21]": {"target": "Gal(a1-3)Gal(b1-3)GlcNAc(b1-6)GalNAc", "method_in_brief": "as §1"}, "[22]": {"target": "Gal(a1-3)Gal(b1-3)[Fuc(a1-4)]GlcNAc(b1-2)Man(a1-3)[Gal(a1-3)Gal(b1-3)[Fuc(a1-4)]GlcNAc(b1-2)Man(a1-6)]Man(b1-4)GlcNAc(b1-4)GlcNAc", "method_in_brief": "as §1"}, "Gal(a1-3)Gal(b1-4)Glc": {"target": "Gal(a1-3)Gal(b1-4)Glc", "method_in_brief": "as §1"}, "Gal(a1-3)Gal(b1-4)GlcNAc": {"target": "Gal(a1-3)Gal(b1-4)GlcNAc", "method_in_brief": "as §1"}, "[23]": {"target": "Gal(a1-3)Gal(b1-4)GlcNAc(b1-2)Man", "method_in_brief": "as §1"}, "[24]": {"target": "Gal(a1-3)Gal(b1-4)GlcNAc(b1-2)Man(a1-3)[Gal(a1-3)Gal(b1-4)GlcNAc(b1-2)Man(a1-6)]Man(b1-4)GlcNAc(b1-4)GlcNAc", "method_in_brief": "as §1"}, "[25]": {"target": "Gal(a1-3)Gal(b1-4)GlcNAc(b1-3)GalNAc", "method_in_brief": "as §1"}, "[26]": {"target": "Gal(a1-3)Gal(b1-4)GlcNAc(b1-6)GalNAc", "method_in_brief": "as §1"}, "[27]": {"target": "Gal(a1-3)Gal(b1-4)[Fuc(a1-3)]GlcNAc", "method_in_brief": "as §1"}, "[28]": {"target": "Gal(a1-3)Gal(b1-4)[Fuc(a1-3)]GlcNAc(b1-2)Man(a1-3)[Gal(a1-3)Gal(b1-4)[Fuc(a1-3)]GlcNAc(b1-2)Man(a1-6)]Man(b1-4)GlcNAc(b1-4)GlcNAc", "method_in_brief": "as §1"}, "Gal(a1-3)GalNAc": {"target": "Gal(a1-3)GalNAc", "method_in_brief": "as §1"}},
  "note": "The other results are listed elsewhere or left out.",
  "data": [
    {"binder": "B1", "values": [
      {"measurement": "glycan array binding signal (z-score)", "setting": "Fuc(a1-3)GlcNAc", "result": -0.083},
      {"measurement": "glycan array binding signal (z-score)", "setting": "[1]", "result": 1.53},
      {"measurement": "glycan array binding signal (z-score)", "setting": "[2]", "result": -0.225},
      {"measurement": "glycan array binding signal (z-score)", "setting": "[3]", "result": -0.044},
      {"measurement": "glycan array binding signal (z-score)", "setting": "[4]", "result": 0.575},
      {"measurement": "glycan array binding signal (z-score)", "setting": "[5]", "result": 0.354},
      {"measurement": "glycan array binding signal (z-score)", "setting": "[6]", "result": -0.007},
      {"measurement": "glycan array binding signal (z-score)", "setting": "[7]", "result": 0.082},
      {"measurement": "glycan array binding signal (z-score)", "setting": "[8]", "result": -0.057},
      {"measurement": "glycan array binding signal (z-score)", "setting": "[9]", "result": -0.56},
      {"measurement": "glycan array binding signal (z-score)", "setting": "[10]", "result": -0.26},
      {"measurement": "glycan array binding signal (z-score)", "setting": "[11]", "result": -0.628},
      {"measurement": "glycan array binding signal (z-score)", "setting": "[12]", "result": 1.22},
      {"measurement": "glycan array binding signal (z-score)", "setting": "[13]", "result": -0.435},
      {"measurement": "glycan array binding signal (z-score)", "setting": "[14]", "result": -0.249},
      {"measurement": "glycan array binding signal (z-score)", "setting": "[15]", "result": 0.175},
      {"measurement": "glycan array binding signal (z-score)", "setting": "[16]", "result": 0.469},
      {"measurement": "glycan array binding signal (z-score)", "setting": "[17]", "result": -0.41},
      {"measurement": "glycan array binding signal (z-score)", "setting": "Fuc(a1-4)GlcNAc", "result": -0.441},
      {"measurement": "glycan array binding signal (z-score)", "setting": "Fuc(b1-3)GlcNAc", "result": 0.803},
      {"measurement": "glycan array binding signal (z-score)", "setting": "Gal(a1-2)Gal", "result": -1.08},
      {"measurement": "glycan array binding signal (z-score)", "setting": "Gal(a1-3)Gal", "result": -0.161},
      {"measurement": "glycan array binding signal (z-score)", "setting": "Gal(a1-3)Gal(b1-3)GlcNAc", "result": 1.53},
      {"measurement": "glycan array binding signal (z-score)", "setting": "[18]", "result": -0.089},
      {"measurement": "glycan array binding signal (z-score)", "setting": "[19]", "result": -0.094},
      {"measurement": "glycan array binding signal (z-score)", "setting": "[20]", "result": -0.685},
      {"measurement": "glycan array binding signal (z-score)", "setting": "[21]", "result": -0.474},
      {"measurement": "glycan array binding signal (z-score)", "setting": "[22]", "result": 0.247},
      {"measurement": "glycan array binding signal (z-score)", "setting": "Gal(a1-3)Gal(b1-4)Glc", "result": -0.347},
      {"measurement": "glycan array binding signal (z-score)", "setting": "Gal(a1-3)Gal(b1-4)GlcNAc", "result": -0.147},
      {"measurement": "glycan array binding signal (z-score)", "setting": "[23]", "result": -0.912},
      {"measurement": "glycan array binding signal (z-score)", "setting": "[24]", "result": 0.366},
      {"measurement": "glycan array binding signal (z-score)", "setting": "[25]", "result": 0.519},
      {"measurement": "glycan array binding signal (z-score)", "setting": "[26]", "result": -0.158},
      {"measurement": "glycan array binding signal (z-score)", "setting": "[27]", "result": -0.222},
      {"measurement": "glycan array binding signal (z-score)", "setting": "[28]", "result": 0.64},
      {"measurement": "glycan array binding signal (z-score)", "setting": "Gal(a1-3)GalNAc", "result": 0.506}
    ]}
  ]
}
